Results: article PMC6718389

Amino acid sequences for entries named in this document (tags omitted). A change or cut given only in a name is not applied to a line headed by its entry.
UniProt Q14526: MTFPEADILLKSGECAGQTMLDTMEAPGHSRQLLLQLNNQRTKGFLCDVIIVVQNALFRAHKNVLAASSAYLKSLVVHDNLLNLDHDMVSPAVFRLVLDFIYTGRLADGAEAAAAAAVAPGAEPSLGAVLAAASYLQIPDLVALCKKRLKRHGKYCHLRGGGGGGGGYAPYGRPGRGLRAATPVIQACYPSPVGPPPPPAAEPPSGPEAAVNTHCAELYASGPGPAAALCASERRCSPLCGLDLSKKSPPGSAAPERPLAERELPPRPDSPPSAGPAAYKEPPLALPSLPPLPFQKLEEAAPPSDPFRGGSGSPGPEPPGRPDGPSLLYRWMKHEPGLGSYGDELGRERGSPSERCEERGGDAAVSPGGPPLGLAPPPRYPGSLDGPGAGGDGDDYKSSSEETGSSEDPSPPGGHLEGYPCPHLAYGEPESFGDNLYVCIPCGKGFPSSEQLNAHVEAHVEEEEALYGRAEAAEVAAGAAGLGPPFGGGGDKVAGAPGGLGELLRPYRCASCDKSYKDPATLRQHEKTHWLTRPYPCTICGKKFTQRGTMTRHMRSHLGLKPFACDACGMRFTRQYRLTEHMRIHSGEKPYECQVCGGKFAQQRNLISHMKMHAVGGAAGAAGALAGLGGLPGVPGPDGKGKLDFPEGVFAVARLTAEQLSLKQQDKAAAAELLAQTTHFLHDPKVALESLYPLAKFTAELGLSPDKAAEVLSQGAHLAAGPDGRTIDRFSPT

Biological target: HIC1 (hypermethylated in cancer 1) (Homo sapiens) (UniProt Q14526)
Assay: EMSA
Settings: 1 mM zinc acetate, LI-COR EMSA kit 1x binding buffer, 1x DTT/Tween-20, 1 ug poly(dI-dC), 0.05% NP-40, 1 mM zinc acetate, 435 ng HIC1, 50 fmol DNA, 20 min room temperature, 6% TBE gel, commercial protein, protein details: c-Myc/DDK (FLAG), label: 5' IRDye700, scale: band intensity

GCCAGACCCCGCCTCCTGGTACAGAGGACCACGCCCGGC (double strand) [rs7594852-T 39 bp oligo]
binding signal (P = 0.013 vs C allele): 76.6

GCCAGACCCCGCCTCCTGGCACAGAGGACCACGCCCGGC (double strand) [rs7594852-C 39 bp oligo]
binding signal (complex supershifted by anti-DDK antibody in separate lane): 204

For at least one entry, the source does not settle the construct or the ends of the probe. Whether high values mean tight binding is not given here for every scale.
